Source: PubChem BioAssay AID2685 (National Center for Advancing Translational Sciences (NCATS), 2010)
The other results are listed elsewhere or left out. These are further read-outs of the screen, such as a control signal, another cell line or another target. No call is given for them. The list favours compounds with an active or inconclusive main result. Words in brackets tell the shape of the fitted curve; partial curves, single points and poor fits give uncertain potencies.

Experiment: qHTS Assay for Lipid Storage Modulators in Drosophila S3 Cells;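 as to cell number change: cells counted by Cell Tracker Red CMTPX staining in the red channel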
Settings: BODIPY lipid droplet fluorescence, 18-24 h; for cell number change: measured here: cell count max response, cells fed with added oleic acid
Outline: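 Drosophila S3 cells loaded with oleic acid (400 uM, as added) and compounds at several concentrations; lipid droplets imaged by 488-nm laser-scanning cytometry, 500–530 nm intensity and object ratio to cell channel. Percent activity normalized to 20 uM Triacsin C.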

[1] = measured here: cell number channel AC50, cells fed with added oleic acid
[2] = measured here: lipid fluorescence (Fed channel) AC50, cells fed with added oleic acid

## Clc1ccc(-n2nnnc2SCc2c(-c3ccccc3)nc3sccn23)cc1
  cell number change: -61.5%
[1]
  AC50: 3.66 µM [falling, partial curve]
[2]
  AC50: 32.6 µM [falling, single point]

## COC(=O)c1ccc(CC(=O)c2c(C)cc(O)cc2O)o1
  cell number change: 4.19%
[2]
  AC50: 0.82 µM [rising, full curve]

## CN(CCCC1CCCC1)C(=O)CC1C(=O)NCCN1Cc1ccc(F)cc1 (stereo not given)
  cell number change: 16.4%
[2]
  AC50: 0.0651 µM [falling, full curve, poor fit]

## O=C(CN1CCN(c2ccc(F)cc2)CC1)Nc1ccc(S(=O)(=O)N2CCOCC2)cc1
[2]
  AC50: 6.51 µM [falling, single point]

## Cc1ccc(NC(=O)CN2C(=O)S/C(=C\c3ccc(-c4cccc(C(=O)O)c4C)o3)C2=O)cc1
  cell number change: 3.13%

## Cc1ccccc1CSCCNS(C)(=O)=O
  cell number change: -72.9%
[1]
  AC50: 18.4 µM [falling, single point]
[2]
  AC50: 0.092 µM [rising, full curve, poor fit]

## Cc1cccc2sc(NC(=O)C3c4ccccc4Oc4ccccc43)nc12
  cell number change: -15.2%
[2]
  AC50: 3.66 µM [falling, partial curve]

## COc1ccccc1NC(=O)CSc1sc2c(O)cc(=O)[nH]c2c1C#N
  cell number change: 8.7%

## O=C(N/N=C/c1sc(=O)n(-c2ccccc2)c1Cl)c1ccccc1
  cell number change: 37.6%
[1]
  AC50: 32.6 µM [rising, single point]

## O=S(CCc1ccncc1)Cc1ccccc1 (stereo not given)
  cell number change: 14.9%
[2]
  AC50: 0.651 µM [falling, full curve]

## CN(C)S(=O)(=O)c1ccc2nc(NC(=O)c3cccs3)sc2c1
  cell number change: 43.5%
[1]
  AC50: 11.6 µM [rising, partial curve]
[2]
  AC50: 0.92 µM [rising, full curve]

## COc1cc(/C=C(\C#N)C(=O)Nc2ccccc2F)ccc1OCCN1CCOCC1
  cell number change: -19.1%

## CCOC(=O)c1c(S(=O)(=O)NCC(=O)NCc2ccccc2)c(C)n(C)c1C
[1]
  AC50: 0.00461 µM [rising, full curve, poor fit]

## O=C1Nc2ccc(Cl)cc2[C@@](C#CC2CC2)(C(F)(F)F)O1
  cell number change: -73%
[1]
  AC50: 13 µM [falling, partial curve]
[2]
  AC50: 14.6 µM [falling, partial curve]

## O=C(Nc1cccnc1)C12CC3CC(CC(C3)C1)C2
  cell number change: -10.6%
[2]
  AC50: 0.164 µM [falling, full curve, poor fit]

## CN(C)c1ccc(/C=C(/NC(=O)c2ccccc2)C(=O)N2CCCC2)cc1
  cell number change: -26.2%
[1]
  AC50: 0.731 µM [falling, full curve, poor fit]
[2]
  AC50: 32.6 µM [rising, single point]

## C=CCSc1nc2c(c(=O)[nH]c(=O)n2C)n1C/C=C(/C)Cl
  cell number change: -19.4%
[2]
  AC50: 32.6 µM [falling, single point]

## O=C(O)c1ccc(NC2=C/C(=N/S(=O)(=O)c3ccccc3)c3ccccc3C2=O)cc1
  cell number change: -63%
[1]
  AC50: 0.164 µM [falling, full curve, poor fit]
[2]
  AC50: 23.1 µM [falling, partial curve, poor fit]

## O=C(N/N=C\c1cccc(Cl)c1)c1ccc(Cn2cc(Br)c([N+](=O)[O-])n2)o1
  cell number change: -15.3%
[2]
  AC50: 25.9 µM [falling, partial curve, poor fit]

## Cc1ccc(CC(=O)NC2CCCc3ccccc32)cc1C (stereo not given)
  cell number change: 6.76%
[2]
  AC50: 0.58 µM [rising, single point]

## CCC(CC)N1CCN(S(=O)(=O)c2ccc(OC)cc2)CC1
  cell number change: 13.2%

## C/C(=N\NC(=O)CSCc1ccc([N+](=O)[O-])cc1)c1ccccc1O
  cell number change: 20.8%
[2]
  AC50: 14.6 µM [rising, partial curve, poor fit]

## COc1cc(SC)ccc1C(=O)Nc1ccc2c(c1)OCO2
  cell number change: 164%
[1]
  AC50: 20.6 µM [rising, partial curve]
[2]
  AC50: 0.731 µM [rising, full curve]

## COc1ccc(CC(=O)NCc2ccccc2Cl)cc1S(=O)(=O)N1CCOCC1
  cell number change: -3.57%

## CNC(=O)CN(c1ccc(F)cc1)S(=O)(=O)c1cc(C)ccc1OC
[1]
  AC50: 0.58 µM [falling, single point]
[2]
  AC50: 0.58 µM [falling, single point]

## COc1ccc(Br)cc1CNc1ccccc1
  cell number change: 3.44%
[2]
  AC50: 16.4 µM [rising, partial curve]

## CCOC(=O)c1c(C)[nH]c(C(=O)OCc2ccc([N+](=O)[O-])cc2)c1C
  cell number change: -18.2%
[2]
  AC50: 16.4 µM [falling, single point]

## O=C(NCCc1ccccc1)C(=O)NCC1CCCO1 (stereo not given)
  cell number change: -2.33%
[2]
  AC50: 2.31 µM [falling, single point]

## Cc1cc(NC(=O)CN2CCC(O)(c3cccc(F)c3)CC2)no1
  cell number change: -48.7%
[1]
  AC50: 32.6 µM [falling, single point]

## O=S(=O)(c1ccc(Cl)cc1)N1CCN(C2CCCCCC2)CC1
  cell number change: 18%
[2]
  AC50: 0.58 µM [rising, partial curve]

## O=C(NCCO)C(=O)NCC1OCCCN1S(=O)(=O)c1cccs1 (stereo not given)
  cell number change: 16.7%
[1]
  AC50: 6.51 µM [rising, single point]

## CCC(=O)c1ccc(OCC(=O)O)cc1
  cell number change: -7.72%
[1]
  AC50: 2.31 µM [rising, partial curve]
[2]
  AC50: 3.66 µM [falling, single point]

## CC(C)(C)c1cc(NC(=O)c2ccco2)n(-c2ccccc2)n1
  cell number change: 57.9%
[1]
  AC50: 29.1 µM [rising, single point]

## CCCCc1ccc(NC=C2C(=O)OC3(CCCCC3)OC2=O)cc1
[2]
  AC50: 16.4 µM [rising, partial curve]

## O=C(NCCS(=O)(=O)NCc1ccc(F)cc1)c1ccccc1
  cell number change: 1.94%
[1]
  AC50: 6.51 µM [falling, single point]

## CSCC[C@H](NC(=O)N1CCn2c1nc1ccccc12)C(=O)NCc1ccc(C)cc1
[2]
  AC50: 0.116 µM [falling, single point]

## COC(=O)c1ccccc1NC(=S)NC(=O)c1ccccc1F
  cell number change: 11.9%
[2]
  AC50: 29.1 µM [rising, single point]

## Cn1c(=O)c2c(ncn2Cc2ccc(Cl)c(Cl)c2)n(C)c1=O
  cell number change: -23.1%
[2]
  AC50: 18.4 µM [falling, single point]

## Cc1ccc2cc(NC(=O)CC(CC(=O)O)c3ccccc3)ccc2n1 (stereo not given)
  cell number change: -23.7%
[2]
  AC50: 0.0651 µM [falling, full curve, poor fit]

## CCOC(=O)CN(Cc1sccc1C)C(=O)Nc1cccc(OC)c1
  cell number change: -3.77%
[2]
  AC50: 29.1 µM [falling, single point]

## FC(F)C(F)(F)C(F)(F)C(F)(F)c1cc(-c2ccccc2)n[nH]1
  cell number change: -68.9%
[1]
  AC50: 20.6 µM [falling, partial curve, poor fit]
[2]
  AC50: 16.4 µM [falling, single point]

## COC(=O)c1sccc1NC(=O)COc1ccc(Cl)cc1
  cell number change: -7.72%
[1]
  AC50: 1.46 µM [falling, full curve, poor fit]

## Cc1ccccc1Oc1cc(NC(=O)CCCn2nc(C)c([N+](=O)[O-])c2C)cc([N+](=O)[O-])c1
  cell number change: -66.6%
[1]
  AC50: 14.6 µM [falling, partial curve]
[2]
  AC50: 20.6 µM [falling, single point]

## COc1ccc(OC)c(C(=O)c2coc3ccc(OC(C)=O)cc23)c1
  cell number change: -35.4%
[1]
  AC50: 9.2 µM [falling, partial curve]
[2]
  AC50: 6.51 µM [falling, partial curve]

## CCN(CC)CCn1c(=S)[nH]c2cc(C(=O)N3CC(C)CC(C)C3)ccc2c1=O (stereo not given)
  cell number change: 13.7%
[2]
  AC50: 29.1 µM [falling, single point]

## Cc1ccc(C(=O)OCC(=O)Nc2nc(-c3ccccc3)cs2)cc1NC(=O)c1ccco1
  cell number change: 151%
[2]
  AC50: 29.1 µM [rising, single point]

## COc1ccc2c(c1)CCc1c(C(=O)N3CCc4ccccc4C3)noc1-2
[2]
  AC50: 3.26 µM [falling, single point]

## Cc1ccc(C2CC(c3ccc(Br)cc3)=NN2C(=O)CSC2=NN3CCCC(=O)N=C3S2)cc1 (stereo not given)
  cell number change: 14.9%
[2]
  AC50: 0.00461 µM [rising, full curve, poor fit]

## O=C(CSc1ccc2nnc(-c3cccnc3)n2n1)c1ccccc1
  cell number change: -62.4%

## O=c1c(Cl)c(N2CCOCC2)cnn1-c1nc2ccccc2[nH]1
  cell number change: 14.3%

## CCN1CCN(CCC(=O)Nc2ccc(Br)c(C)c2)CC1
  cell number change: -8.92%
[2]
  AC50: 6.51 µM [rising, single point]

## O/N=C(/c1ccccc1)c1cc2cc(Br)cc(Br)c2o1
  cell number change: -42.2%
[1]
  AC50: 14.6 µM [falling, partial curve]
[2]
  AC50: 25.9 µM [falling, partial curve]

## Cc1ccc(S(=O)(=O)NCC(=O)NCC2CCCCC2)cc1C
  cell number change: 25%
[2]
  AC50: 20.6 µM [rising, partial curve]

## CCc1cccc(NC(=O)CN(C)S(=O)(=O)c2cccc3cccnc23)c1
  cell number change: 30.3%

## CCN(Cc1ccccc1)S(=O)(=O)c1ccc(C(=O)N2CCN(c3nc4ccccc4s3)CC2)cc1
  cell number change: 26.1%
[2]
  AC50: 8.2 µM [rising, partial curve, poor fit]

## COc1cccc(NC(=O)CCc2nnc3ccc(N4CCN(c5cccc(OC)c5)CC4)nn23)c1
[2]
  AC50: 3.66 µM [falling, full curve]

## CC1CC(C)CN(C(=O)CSCC(=O)Nc2nc(-c3cccs3)cs2)C1 (stereo not given)
  cell number change: -35.5%
[1]
  AC50: 6.51 µM [falling, full curve, poor fit]
[2]
  AC50: 9.2 µM [falling, partial curve]

## CC(=O)Nc1ccc(S(=O)(=O)NC2CC(=O)N(c3ccc4c(c3)OCCO4)C2)cc1 (stereo not given)
  cell number change: 76.4%
[1]
  AC50: 16.4 µM [rising, single point]
